Some of the results follow. The data scatter; read single values as rough.

Chains of the proteins cited; added tags and fusions are not shown. Lines headed by an entry give the natural chain unless they say otherwise; changes in a name come on top. Residues count along the entry.
UniProt P10155: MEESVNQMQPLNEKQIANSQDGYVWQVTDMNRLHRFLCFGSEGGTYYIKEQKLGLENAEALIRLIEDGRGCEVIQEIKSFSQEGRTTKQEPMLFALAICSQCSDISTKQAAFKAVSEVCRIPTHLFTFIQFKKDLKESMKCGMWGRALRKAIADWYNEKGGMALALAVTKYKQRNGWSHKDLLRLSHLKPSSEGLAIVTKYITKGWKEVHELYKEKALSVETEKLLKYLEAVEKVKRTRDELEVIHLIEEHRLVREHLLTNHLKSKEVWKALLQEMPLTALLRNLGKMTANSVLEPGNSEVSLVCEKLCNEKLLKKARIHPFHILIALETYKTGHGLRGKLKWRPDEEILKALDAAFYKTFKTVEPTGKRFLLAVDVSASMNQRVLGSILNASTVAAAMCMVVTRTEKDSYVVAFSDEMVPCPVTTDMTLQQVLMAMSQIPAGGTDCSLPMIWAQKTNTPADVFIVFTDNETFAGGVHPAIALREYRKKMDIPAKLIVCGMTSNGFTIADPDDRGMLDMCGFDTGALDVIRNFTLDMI
UniProt Q14684: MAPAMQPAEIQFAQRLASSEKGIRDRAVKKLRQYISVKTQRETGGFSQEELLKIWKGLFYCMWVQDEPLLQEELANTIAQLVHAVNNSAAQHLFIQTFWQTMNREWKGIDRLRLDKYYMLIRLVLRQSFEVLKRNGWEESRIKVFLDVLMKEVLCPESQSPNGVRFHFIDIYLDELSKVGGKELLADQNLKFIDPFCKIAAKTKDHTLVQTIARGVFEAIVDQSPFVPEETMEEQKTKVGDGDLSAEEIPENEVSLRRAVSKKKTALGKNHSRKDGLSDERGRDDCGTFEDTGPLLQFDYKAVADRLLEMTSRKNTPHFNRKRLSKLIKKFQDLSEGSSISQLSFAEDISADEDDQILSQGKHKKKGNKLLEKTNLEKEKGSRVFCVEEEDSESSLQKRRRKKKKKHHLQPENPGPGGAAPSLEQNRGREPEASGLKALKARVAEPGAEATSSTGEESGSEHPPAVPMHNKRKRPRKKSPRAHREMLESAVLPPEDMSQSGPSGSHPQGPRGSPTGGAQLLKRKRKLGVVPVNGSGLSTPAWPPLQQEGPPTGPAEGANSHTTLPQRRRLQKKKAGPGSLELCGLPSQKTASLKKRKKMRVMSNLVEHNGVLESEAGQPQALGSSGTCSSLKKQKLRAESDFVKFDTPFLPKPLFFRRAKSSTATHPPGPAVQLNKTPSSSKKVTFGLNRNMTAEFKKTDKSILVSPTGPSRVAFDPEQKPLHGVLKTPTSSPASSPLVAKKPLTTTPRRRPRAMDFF
UniProt Q5JTH9: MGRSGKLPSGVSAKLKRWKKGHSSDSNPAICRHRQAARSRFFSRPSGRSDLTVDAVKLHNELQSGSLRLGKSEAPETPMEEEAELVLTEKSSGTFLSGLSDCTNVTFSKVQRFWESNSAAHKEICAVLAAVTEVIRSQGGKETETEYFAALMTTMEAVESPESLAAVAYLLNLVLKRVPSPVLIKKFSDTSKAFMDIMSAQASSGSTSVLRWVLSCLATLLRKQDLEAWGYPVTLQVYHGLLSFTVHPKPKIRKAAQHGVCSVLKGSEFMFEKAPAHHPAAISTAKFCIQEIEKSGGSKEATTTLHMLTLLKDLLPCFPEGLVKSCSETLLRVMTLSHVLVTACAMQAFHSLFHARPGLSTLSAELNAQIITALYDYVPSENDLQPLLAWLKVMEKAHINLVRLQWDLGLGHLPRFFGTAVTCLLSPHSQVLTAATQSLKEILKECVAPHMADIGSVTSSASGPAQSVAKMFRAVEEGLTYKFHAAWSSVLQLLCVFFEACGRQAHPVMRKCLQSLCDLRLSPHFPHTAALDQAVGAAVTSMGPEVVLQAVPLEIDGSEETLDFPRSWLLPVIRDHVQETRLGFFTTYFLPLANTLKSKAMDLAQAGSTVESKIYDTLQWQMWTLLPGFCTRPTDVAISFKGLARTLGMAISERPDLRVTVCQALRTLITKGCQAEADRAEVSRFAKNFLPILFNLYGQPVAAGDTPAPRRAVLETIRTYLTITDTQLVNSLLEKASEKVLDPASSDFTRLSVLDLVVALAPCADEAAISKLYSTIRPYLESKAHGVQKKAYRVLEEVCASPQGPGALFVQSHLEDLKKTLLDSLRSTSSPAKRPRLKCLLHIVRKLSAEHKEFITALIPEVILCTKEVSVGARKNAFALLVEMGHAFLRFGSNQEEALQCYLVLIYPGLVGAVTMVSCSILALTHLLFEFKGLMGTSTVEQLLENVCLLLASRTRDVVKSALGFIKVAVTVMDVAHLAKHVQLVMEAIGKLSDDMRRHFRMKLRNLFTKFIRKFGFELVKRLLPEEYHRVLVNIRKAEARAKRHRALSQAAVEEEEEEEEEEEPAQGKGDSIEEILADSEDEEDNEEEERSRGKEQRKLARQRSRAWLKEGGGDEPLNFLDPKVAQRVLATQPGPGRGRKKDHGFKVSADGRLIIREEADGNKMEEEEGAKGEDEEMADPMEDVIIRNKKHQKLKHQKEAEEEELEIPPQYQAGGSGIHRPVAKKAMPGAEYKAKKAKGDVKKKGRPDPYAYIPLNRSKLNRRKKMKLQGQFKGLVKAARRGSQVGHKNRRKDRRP
UniProt Q9UBS8: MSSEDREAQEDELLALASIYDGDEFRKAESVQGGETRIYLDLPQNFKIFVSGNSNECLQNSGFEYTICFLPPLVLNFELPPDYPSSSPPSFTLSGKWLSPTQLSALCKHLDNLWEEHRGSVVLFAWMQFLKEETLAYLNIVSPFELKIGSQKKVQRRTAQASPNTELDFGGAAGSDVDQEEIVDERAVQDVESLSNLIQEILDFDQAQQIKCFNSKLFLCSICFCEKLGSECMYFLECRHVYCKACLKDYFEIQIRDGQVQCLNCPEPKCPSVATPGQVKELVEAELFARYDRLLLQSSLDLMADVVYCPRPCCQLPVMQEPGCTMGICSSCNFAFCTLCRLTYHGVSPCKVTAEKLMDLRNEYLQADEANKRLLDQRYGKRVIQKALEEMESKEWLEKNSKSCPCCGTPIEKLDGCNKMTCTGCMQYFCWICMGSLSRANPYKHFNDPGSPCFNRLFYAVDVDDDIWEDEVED
UniProt Q8N122, whole entry, looked up: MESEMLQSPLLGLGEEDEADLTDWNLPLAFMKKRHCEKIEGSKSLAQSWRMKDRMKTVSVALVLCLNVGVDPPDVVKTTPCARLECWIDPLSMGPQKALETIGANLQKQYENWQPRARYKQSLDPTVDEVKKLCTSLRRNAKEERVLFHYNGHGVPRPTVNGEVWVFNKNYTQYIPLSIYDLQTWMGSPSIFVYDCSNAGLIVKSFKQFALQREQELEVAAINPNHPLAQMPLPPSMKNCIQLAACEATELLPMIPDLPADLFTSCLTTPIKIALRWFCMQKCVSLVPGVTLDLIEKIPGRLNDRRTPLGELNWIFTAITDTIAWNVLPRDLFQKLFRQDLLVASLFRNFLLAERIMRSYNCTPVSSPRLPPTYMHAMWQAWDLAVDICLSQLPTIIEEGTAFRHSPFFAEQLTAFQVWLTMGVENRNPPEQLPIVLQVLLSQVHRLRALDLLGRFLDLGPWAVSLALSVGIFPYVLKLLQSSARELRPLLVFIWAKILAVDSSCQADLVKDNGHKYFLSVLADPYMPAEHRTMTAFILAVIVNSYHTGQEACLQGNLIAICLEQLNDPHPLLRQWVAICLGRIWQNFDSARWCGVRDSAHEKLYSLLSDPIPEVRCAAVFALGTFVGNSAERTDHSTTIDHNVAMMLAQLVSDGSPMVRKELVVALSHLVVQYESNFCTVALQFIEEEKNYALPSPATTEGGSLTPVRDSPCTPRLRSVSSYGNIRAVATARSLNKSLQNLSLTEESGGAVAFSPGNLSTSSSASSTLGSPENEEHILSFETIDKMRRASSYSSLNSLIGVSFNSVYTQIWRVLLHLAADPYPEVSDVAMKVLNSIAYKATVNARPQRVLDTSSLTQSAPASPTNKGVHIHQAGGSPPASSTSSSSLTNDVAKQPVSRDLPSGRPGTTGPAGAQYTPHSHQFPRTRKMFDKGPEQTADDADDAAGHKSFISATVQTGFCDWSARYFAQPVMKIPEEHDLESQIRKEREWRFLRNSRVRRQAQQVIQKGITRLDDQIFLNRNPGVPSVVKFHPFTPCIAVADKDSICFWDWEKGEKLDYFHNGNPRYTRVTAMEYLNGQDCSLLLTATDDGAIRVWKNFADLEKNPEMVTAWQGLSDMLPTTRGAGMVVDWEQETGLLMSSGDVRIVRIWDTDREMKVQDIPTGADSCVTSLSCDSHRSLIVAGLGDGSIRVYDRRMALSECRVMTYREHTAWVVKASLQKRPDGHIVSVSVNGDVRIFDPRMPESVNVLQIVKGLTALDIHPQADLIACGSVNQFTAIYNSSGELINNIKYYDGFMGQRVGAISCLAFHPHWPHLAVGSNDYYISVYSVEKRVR
UniProt Q9BUL9, 9-39: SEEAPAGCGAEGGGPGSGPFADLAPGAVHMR
UniProt Q99496, 162-196: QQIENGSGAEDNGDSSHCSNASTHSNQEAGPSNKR
UniProt O75116: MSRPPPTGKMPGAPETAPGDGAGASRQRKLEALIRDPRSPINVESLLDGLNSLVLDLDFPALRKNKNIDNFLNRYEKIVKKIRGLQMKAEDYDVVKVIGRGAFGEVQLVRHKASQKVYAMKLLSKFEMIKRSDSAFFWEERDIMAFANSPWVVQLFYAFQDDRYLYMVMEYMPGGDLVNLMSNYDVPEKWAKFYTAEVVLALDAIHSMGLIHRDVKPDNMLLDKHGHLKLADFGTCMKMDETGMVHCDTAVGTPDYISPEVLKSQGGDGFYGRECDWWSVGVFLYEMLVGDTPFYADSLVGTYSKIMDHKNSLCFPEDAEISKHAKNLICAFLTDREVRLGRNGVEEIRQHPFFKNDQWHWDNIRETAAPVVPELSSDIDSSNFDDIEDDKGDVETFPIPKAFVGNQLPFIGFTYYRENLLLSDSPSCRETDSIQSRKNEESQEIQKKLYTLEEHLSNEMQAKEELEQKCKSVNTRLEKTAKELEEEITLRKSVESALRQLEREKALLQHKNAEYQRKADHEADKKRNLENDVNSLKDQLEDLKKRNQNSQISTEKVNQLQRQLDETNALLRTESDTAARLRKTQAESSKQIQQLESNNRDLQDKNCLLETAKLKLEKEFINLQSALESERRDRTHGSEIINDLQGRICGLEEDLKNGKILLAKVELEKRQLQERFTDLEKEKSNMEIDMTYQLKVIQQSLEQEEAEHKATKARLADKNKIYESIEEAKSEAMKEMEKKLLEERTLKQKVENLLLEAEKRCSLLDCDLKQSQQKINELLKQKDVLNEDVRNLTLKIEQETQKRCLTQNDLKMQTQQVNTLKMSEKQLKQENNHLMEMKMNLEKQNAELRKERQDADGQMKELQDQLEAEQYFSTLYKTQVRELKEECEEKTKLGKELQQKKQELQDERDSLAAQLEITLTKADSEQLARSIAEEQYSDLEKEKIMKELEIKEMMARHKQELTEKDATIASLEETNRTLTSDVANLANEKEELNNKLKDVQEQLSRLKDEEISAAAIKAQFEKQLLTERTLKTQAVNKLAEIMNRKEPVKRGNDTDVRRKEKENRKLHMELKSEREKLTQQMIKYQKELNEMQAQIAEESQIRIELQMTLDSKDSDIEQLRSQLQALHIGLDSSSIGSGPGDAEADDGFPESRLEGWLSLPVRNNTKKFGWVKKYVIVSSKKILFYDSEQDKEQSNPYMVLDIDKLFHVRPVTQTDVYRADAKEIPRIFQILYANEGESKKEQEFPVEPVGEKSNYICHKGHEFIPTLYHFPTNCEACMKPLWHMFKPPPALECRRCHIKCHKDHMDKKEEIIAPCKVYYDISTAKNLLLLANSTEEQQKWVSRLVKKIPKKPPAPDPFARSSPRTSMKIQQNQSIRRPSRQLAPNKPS
UniProt Q96T51: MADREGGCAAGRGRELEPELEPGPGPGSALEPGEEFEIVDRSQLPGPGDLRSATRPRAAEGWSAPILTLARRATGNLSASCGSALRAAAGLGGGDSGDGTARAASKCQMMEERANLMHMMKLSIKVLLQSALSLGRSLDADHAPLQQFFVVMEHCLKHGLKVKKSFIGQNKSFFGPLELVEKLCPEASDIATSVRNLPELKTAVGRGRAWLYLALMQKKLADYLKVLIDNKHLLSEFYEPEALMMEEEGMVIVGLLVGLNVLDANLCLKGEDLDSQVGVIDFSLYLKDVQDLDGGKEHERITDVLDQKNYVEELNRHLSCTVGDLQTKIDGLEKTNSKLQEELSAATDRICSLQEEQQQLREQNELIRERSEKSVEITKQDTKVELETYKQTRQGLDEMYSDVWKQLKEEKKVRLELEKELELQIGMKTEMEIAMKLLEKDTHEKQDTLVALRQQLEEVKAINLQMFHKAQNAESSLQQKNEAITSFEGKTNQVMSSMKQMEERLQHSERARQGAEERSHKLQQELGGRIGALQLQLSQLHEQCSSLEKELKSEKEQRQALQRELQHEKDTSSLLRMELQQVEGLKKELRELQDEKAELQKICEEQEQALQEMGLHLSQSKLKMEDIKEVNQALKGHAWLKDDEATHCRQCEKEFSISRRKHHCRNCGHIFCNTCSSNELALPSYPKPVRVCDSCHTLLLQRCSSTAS

Compound in experiment [1]: ClCC(=O)N[C@@H]1CCCc2ccccc12
Briefly: log2 mean competition ratio of IA-DTB cysteine labelling (DMSO/compound) (log2 ratio); higher = stronger cysteine engagement by compound. Conditions: treatment time: 4 h, cell line lysate: HEK293T. As to the method: (§1)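 IA-DTB competitive cysteine chemoproteomics in HEK293T RIPA lysate. Lysates were treated with compound 29 or 30 at 50 or 200 µM for 4 h, then IA-DTB (500 µM, 1 h), trypsin-digested, NeutrAvidin-enriched and analysed by diaPASEF. Competition ratio = intensity DMSO / intensity compound (n=4 treated, n=64 DMSO); binding: mean log2 CR ≥ 1 and p ≤ 0.05 plus QC filters. Target is the cysteine site.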

Compound in experiment [2]: ClCC(=O)N[C@H]1CCCc2ccccc12
Described as above. The settings on record: treatment time: 4 h, cell line lysate: HEK293T. As to the method: as §1

As to SACS C2182 (UniProt Q9NZJ4), the “log2 mean competition ratio” value is -0.0966 in experiment [1] (50 µM), -0.191 in experiment [1] (200 µM), 0.0213 in experiment [2] (50 µM) and -0.31 in experiment [2] (200 µM).
Turning to RPS15A C30 (UniProt P62244), the “log2 mean competition ratio” value in experiment [1] (50 µM) is -0.156; in experiment [1] (200 µM) it was -0.127; in experiment [2] (50 µM), 0.268; in experiment [2] (200 µM), -0.0896.
As for RO60 C71 (UniProt P10155), the “log2 mean competition ratio” value in experiment [1] (50 µM) was -0.0384; in experiment [1] (200 µM), -0.363; in experiment [2] (50 µM), 0.629; in experiment [2] (200 µM), 0.132.
For the target RRP1B C583 (UniProt Q14684), the “log2 mean competition ratio” value in experiment [1] (50 µM) was 0.134; in experiment [1] (200 µM), -0.0232; in experiment [2] (50 µM), -0.047; in experiment [2] (200 µM) it was -0.041.
RSL1D1 C197 (UniProt O76021): the “log2 mean competition ratio” value is -0.158 in experiment [1] (50 µM), -0.0307 in experiment [1] (200 µM), -0.0684 in experiment [2] (50 µM) and 0.075 in experiment [2] (200 µM).
For the target RRP12 C673 (UniProt Q5JTH9), the “log2 mean competition ratio” value was 0.124 in experiment [1] (50 µM), 0.0304 in experiment [1] (200 µM), -0.0273 in experiment [2] (50 µM) and 0.0424 in experiment [2] (200 µM).
As to RPL11 C150 (UniProt P62913), the “log2 mean competition ratio” value turned out to be 0.2 in experiment [1] (50 µM), 0.0511 in experiment [1] (200 µM), 0.287 in experiment [2] (50 µM) and 0.116 in experiment [2] (200 µM).
For RNF213 C310, in that order: -0.35, 0.557, -0.119 and 0.519.
For RNF14 C270 (UniProt Q9UBS8), in that order: -0.425, -0.0521, -0.427 and -0.0141.
As to RPTOR C362 (UniProt Q8N122), the “log2 mean competition ratio” value is 0.283 in experiment [1] (50 µM), 0.0182 in experiment [1] (200 µM), -0.122 in experiment [2] (50 µM) and 0.0107 in experiment [2] (200 µM).
For RPP25 C16 (UniProt Q9BUL9), in that order: -0.372, -0.255, -0.147 and 0.117.
For the target RNF2 C179 (UniProt Q99496), the “log2 mean competition ratio” value in experiment [1] (50 µM) was -0.439; in experiment [1] (200 µM), -0.0689; in experiment [2] (50 µM) it was -0.392; in experiment [2] (200 µM), -0.267.
Turning to ROCK2 C428 (UniProt O75116), the “log2 mean competition ratio” value was determined as 0.177 in experiment [1] (50 µM), 0.295 in experiment [1] (200 µM), 0.509 in experiment [2] (50 µM) and 0.353 in experiment [2] (200 µM).
Take RNF135 C270: the “log2 mean competition ratio” value in experiment [1] (50 µM) was -0.216; in experiment [1] (200 µM), -3.72; in experiment [2] (50 µM) it was -0.416; in experiment [2] (200 µM), 0.00677.
For RUFY1 C320 (UniProt Q96T51) the same measures were -0.191, -0.16, -0.0153 and -0.134.

The record behind these values is the supplement of paper PMC11732987, “Enantioselective OTUD7B fragment discovery through chemoproteomics screening and high-throughput optimisation” (Communications Chemistry, 2025).
